Measurements: patent US20150010566A1
Results are given in words; binding and its absence hold for the method and conditions named. For part of these data: Binding calls can cover weak binding; strength is not graded here.

B1: AT10-001 (antibody, V domains shown)
VH: EVQLLESGGGLVQPGGSLRLSCAASGFSFSTYAMSWVRQAPGKGLEWVSGISGSGESTYYADSVKGRFTVSRDNSKNTLYLQMNSLRAEDTAVYYCAKQGDHIAWLLRGINFDYWGQGVLVTVSS
VL: EIVLTQSPGTLSLSPGERATLSCRASQSVSSSYLAWYQQKPGQAPRLLIYGASTRATGIPDRFSGRGSGTDFTLTISSLEPEDFAVYYCQNYGSPFLFTFGPGTKVDIKR
B2: AT10-003 (antibody, V domains shown)
VH: QVHLVQSGAEVRKPGASVKVSCKVSGYTLNELSIHWLRQAPGRGLEWMGSFDPEDGETIYAQKFQGRVTMTGDTSTDTAYLELTSLRSEDTALYYCARGWGAVTSPFDFWGQGTLVTVSS
VL: DIVMTQSPLSLPVTPGEPASISCRSSQSLLHSNGHIYFDWYLQKPGQSPQLLIYLVSKRASGVPDRFSGSGSGTDFTLKISRVEAEDVGVYYCMQALETPFTFGPGTKVHIKR
B3: AT10-002 (antibody, V domains shown)
VH: QLQLQESGPRLVKPSETLSLTCSVSGVSISSSNYYWGWIRQPPGKGLEWIGTIYHSGSTYYNPSLKSRLIISVDTSKNQFYLQLTSLTAADSAVYYCATGGGFGWSQTYFGYWGQGTLVTASS
VL: QSALTQPASVSGSPGQSITISCTGTSSDVGAYNYVSWYQHHPGKAPKLMIYDVTYRPSGVSTRFSGSKSGNTASLTISGLQAEDEADYYCSSQSRSSTLVIFGGGTKLTVLG

Legend:
[1] = biological target: recombinant HA of H1 (A/New Caledonia/20/1999) (Influenza A virus H1N1 A/New Caledonia/20/1999 (host Human)); experiment: ELISA; recombinant HA coated 1 µg/ml; B cell supernatant
[2] = biological target: recombinant HA of H3 (A/Wyoming/03/2003) (Influenza A virus H3N2 A/Wyoming/03/2003 (host Human)); experiment: ELISA; recombinant HA coated 1 µg/ml; B cell supernatant; anti-human IgG-HRP
[3] = biological target: recombinant HA of Influenza B (B/Florida/4/2006) (Influenza B virus B/Florida/4/2006 (host Human)); experiment: ELISA; recombinant HA coated; mAb
[4] = biological target: recombinant HA of H1N1 (A/California/07/2009) (Influenza A virus H1N1 A/California/07/2009 (host Human)); experiment: ELISA; recombinant HA coated; mAb
[5] = biological target: recombinant HA of H1 (A/New Caledonia/20/1999) (Influenza A virus H1N1 A/New Caledonia/20/1999 (host Human)); experiment: ELISA; recombinant HA coated; mAb
[6] = biological target: recombinant HA of H3 (A/Wyoming/03/2003) (Influenza A virus H3N2 A/Wyoming/03/2003 (host Human)); experiment: ELISA; recombinant HA coated; mAb; anti-human IgG-HRP

Binder	binding [1]	binding [2]	binding [3]	binding [4]	binding [5]	binding [6]
B1	no binding	binds	no binding	no binding	no binding	binds
B2	no binding	binds	no binding	no binding	no binding	binds
B3	no binding	binds	no binding	no binding	no binding	binds
